Experimental data: article PMC10991284
These are yes or no findings as the source states them, for the method shown. In cells and extracts the contact can be indirect. Some binding calls cover weakened binding; strength is not graded here.

The chains behind the UniProt entries cited, without tags or fusion partners.
UniProt O14686: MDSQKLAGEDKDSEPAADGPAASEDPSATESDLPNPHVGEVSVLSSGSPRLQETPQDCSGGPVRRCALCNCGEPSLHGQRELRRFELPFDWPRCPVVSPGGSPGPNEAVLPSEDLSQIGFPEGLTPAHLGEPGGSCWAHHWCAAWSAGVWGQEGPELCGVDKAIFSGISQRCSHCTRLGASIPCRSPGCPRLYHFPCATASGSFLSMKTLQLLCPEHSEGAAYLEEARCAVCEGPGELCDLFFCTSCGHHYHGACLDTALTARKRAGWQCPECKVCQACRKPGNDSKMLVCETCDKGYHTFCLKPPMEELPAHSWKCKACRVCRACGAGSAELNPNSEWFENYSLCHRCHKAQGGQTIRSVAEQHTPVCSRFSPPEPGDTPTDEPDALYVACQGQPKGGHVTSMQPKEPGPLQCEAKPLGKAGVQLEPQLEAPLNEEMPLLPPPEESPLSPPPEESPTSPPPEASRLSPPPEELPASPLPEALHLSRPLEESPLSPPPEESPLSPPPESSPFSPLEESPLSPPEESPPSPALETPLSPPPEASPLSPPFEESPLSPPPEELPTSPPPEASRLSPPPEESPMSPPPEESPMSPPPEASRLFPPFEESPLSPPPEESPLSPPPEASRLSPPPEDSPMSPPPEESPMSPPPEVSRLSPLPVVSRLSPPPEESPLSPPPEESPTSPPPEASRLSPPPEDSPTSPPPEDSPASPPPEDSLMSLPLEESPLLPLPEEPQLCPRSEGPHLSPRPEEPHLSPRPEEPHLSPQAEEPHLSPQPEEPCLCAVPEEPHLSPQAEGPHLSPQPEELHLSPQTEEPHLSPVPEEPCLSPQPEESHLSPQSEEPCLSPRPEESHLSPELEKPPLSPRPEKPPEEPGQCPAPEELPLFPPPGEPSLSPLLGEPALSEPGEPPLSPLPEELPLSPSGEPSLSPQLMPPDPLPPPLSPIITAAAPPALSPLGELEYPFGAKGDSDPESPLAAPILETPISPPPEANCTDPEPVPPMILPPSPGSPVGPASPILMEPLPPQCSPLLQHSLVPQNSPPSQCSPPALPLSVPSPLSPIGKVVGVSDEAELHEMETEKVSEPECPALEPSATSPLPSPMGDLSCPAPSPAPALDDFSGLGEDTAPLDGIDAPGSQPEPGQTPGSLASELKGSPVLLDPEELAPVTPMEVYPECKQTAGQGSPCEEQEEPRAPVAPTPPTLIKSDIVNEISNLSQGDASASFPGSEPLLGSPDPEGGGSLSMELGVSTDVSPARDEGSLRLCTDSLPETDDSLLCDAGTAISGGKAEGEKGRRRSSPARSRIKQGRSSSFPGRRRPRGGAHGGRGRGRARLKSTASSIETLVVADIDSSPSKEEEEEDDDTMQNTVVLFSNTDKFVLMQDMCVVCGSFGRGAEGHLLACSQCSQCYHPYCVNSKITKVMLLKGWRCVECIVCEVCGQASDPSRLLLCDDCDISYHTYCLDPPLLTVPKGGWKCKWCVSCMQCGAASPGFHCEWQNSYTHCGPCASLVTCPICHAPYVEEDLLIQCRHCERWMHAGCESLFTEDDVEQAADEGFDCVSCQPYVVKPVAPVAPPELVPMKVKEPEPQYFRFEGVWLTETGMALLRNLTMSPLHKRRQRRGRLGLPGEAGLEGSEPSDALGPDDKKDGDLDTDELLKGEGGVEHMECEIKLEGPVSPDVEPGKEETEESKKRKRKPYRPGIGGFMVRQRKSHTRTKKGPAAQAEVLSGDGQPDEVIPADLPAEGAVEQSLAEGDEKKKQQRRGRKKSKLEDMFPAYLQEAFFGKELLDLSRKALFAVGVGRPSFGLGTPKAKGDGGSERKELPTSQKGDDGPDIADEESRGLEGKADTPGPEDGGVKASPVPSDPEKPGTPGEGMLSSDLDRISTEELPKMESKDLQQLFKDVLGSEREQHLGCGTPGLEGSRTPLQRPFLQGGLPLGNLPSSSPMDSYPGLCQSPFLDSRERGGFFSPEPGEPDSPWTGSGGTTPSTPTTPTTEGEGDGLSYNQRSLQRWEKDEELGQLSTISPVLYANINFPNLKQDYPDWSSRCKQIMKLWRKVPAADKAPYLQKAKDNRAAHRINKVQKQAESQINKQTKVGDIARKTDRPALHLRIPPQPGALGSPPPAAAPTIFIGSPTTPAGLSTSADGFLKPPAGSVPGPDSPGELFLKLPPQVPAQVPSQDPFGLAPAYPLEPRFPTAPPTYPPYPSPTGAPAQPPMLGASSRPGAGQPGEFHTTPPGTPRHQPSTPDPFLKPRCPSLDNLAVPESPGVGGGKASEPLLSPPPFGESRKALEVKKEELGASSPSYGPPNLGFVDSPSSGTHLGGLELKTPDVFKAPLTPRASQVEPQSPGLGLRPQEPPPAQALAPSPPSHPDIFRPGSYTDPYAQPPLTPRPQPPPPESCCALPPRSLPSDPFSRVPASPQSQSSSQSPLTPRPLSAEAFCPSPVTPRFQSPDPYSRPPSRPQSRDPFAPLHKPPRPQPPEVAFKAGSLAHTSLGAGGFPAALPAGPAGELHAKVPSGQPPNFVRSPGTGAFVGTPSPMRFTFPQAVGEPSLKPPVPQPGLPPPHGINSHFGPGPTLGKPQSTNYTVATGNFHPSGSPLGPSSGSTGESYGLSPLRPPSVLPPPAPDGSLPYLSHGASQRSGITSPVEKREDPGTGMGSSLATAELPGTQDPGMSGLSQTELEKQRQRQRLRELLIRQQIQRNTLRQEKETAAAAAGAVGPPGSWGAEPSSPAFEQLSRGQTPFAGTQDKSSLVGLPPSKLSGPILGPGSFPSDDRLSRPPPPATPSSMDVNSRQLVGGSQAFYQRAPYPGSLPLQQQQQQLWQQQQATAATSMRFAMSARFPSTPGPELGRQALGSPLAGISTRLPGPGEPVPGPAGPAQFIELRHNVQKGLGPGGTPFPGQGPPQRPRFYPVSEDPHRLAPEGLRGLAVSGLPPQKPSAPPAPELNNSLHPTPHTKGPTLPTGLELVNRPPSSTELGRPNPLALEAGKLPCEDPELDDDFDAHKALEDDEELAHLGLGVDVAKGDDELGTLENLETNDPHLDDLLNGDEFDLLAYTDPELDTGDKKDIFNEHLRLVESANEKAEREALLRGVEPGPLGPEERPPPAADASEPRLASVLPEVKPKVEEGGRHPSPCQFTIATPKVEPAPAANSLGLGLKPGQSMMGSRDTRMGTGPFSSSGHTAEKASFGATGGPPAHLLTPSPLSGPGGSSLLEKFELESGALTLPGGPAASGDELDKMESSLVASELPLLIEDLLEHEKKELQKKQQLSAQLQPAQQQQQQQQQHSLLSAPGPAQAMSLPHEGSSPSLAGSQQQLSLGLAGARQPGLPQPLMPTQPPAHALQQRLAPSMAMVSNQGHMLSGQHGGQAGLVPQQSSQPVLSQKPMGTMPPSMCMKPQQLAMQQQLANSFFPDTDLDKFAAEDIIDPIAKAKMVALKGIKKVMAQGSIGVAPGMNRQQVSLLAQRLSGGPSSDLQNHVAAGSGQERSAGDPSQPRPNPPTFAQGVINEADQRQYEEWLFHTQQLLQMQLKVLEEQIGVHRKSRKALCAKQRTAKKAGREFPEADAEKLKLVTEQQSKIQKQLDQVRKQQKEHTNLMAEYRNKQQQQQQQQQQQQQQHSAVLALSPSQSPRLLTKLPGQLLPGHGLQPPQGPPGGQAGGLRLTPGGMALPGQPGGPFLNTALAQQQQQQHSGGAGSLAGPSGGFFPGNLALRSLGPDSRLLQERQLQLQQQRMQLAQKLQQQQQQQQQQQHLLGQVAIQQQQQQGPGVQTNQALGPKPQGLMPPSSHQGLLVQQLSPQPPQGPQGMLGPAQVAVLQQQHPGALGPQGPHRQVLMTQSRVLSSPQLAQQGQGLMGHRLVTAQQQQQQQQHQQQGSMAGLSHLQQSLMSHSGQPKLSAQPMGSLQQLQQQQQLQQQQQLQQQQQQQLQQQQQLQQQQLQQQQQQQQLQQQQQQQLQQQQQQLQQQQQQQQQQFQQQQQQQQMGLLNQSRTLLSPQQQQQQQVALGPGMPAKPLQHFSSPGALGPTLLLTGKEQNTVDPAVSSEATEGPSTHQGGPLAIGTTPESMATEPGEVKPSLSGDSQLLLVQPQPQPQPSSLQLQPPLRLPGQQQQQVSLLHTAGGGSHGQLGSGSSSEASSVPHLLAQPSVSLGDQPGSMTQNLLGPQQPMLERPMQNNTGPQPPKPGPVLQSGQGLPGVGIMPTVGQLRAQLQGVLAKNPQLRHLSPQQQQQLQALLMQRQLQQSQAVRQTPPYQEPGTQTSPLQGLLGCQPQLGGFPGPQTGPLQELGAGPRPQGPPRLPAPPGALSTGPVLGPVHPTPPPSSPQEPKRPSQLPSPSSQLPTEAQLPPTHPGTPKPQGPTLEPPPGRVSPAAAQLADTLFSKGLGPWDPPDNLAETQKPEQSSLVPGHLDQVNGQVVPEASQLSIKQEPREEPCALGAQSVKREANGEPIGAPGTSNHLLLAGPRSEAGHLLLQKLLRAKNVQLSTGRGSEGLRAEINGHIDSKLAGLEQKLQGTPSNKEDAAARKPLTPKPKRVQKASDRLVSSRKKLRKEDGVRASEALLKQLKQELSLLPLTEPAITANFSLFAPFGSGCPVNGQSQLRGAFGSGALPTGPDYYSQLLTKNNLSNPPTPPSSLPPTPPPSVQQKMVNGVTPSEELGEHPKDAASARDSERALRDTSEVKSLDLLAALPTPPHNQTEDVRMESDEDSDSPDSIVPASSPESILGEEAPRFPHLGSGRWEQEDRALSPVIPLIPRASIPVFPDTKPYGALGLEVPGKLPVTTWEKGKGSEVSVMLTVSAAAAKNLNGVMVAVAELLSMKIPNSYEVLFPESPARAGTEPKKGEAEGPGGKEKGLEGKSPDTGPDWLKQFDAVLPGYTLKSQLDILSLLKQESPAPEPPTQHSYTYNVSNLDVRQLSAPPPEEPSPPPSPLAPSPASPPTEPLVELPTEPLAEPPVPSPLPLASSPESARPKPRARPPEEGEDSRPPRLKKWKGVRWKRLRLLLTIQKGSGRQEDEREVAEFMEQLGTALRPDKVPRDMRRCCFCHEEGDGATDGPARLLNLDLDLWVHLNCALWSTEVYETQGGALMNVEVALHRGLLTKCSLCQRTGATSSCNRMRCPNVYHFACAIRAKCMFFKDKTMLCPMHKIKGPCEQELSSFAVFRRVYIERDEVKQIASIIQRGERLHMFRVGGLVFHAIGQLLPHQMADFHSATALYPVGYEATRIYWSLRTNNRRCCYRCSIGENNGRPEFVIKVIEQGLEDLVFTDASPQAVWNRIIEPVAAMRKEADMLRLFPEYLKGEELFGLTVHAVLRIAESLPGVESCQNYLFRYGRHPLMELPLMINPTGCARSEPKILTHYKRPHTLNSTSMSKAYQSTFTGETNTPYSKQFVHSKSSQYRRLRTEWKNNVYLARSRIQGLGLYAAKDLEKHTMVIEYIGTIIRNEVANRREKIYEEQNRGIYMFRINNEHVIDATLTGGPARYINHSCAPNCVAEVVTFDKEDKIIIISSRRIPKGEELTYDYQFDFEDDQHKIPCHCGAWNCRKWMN

Target: KMT2D (human (endogenous in OCI-Ly7 and SU-DHL4)) (UniProt O14686)
Experiment: co-IP; endogenous proteins in nuclear extracts of OCI-Ly7 and SUDHL4; 150 mM KCl, 0.1% IGEPAL CA-630; primary antibody (anti-CREBBP or anti-KMT2D) overnight, DynaBeads protein A 1.5 h, 6 washes, immunoblot; control antibody

## CREBBP (from UniProt Q92793 1-2442)
  binding: binds
